# “Also recorded” adds a separate entry of the source. For at least one compound, name, drawing or mass did not settle the structure.
# Assays:
# [1] = system: HE cells; test: Lymphoid (NK) differentiation assay on OP9-DL1 stroma; assay type: cell-based, human
# Protocol: Subculture day 3 HE cells cultured in the presence of UK5099 (10 μM) or DCA (3 mM or 10 mM), as indicated, were collected after a 2-minute incubation at 37° C. with StemPro Accutase Cell Dissociation Reagent and seeded onto 80% confluent OP9-DL1 stroma. Cells were cultured in OP9 medium (OptiMEM medium with Glutamax (Invitrogen) with 10% FCS, 1% penicillin-streptomycin solution (Thermo Fisher Scientific) and 1% 2-mercaptoethanol (Invitrogen)) with SCF (10 ng/ml), FLT3-L (10 ng/ml), IL-2 (5 ng/ml), IL-7 (5 ng/ml, first 15 days only) and IL-15 (10 ng/ml) with passaging onto new OP9-DL1 stroma every week, as described previously (Renoux, V. M. et al. Identification of a Human Natural Killer Cell Lineage-Restricted Progenitor in Fetal and Adult Tissues. Immunity 43, 394-407 (2015)). At day 35 of co-culture, cells were analyzed on a BD LSRFortessa.
# [2] = system: LT-HSCs; test: CFU assay of LT-HSCs sorted from fetal livers of treated embryos; assay type: in vivo, mice; details: DCA-treated embryos
# Protocol: For fetal liver analysis, pregnant female C57Bl/6xB6.SJL mice were injected intraperitoneally at E9.5 with UK5099 (4 mg/kg) or DCA (200 mg/kg) or PBS (control). Embryos were harvested at E14.5 and individually weighed and processed. Fetal livers were dissected and homogenised in 800 μL ice cold PBS supplemented with 2% fetal bovine serum (FBS) and FL cells were washed in PBS with 2%/FBS. For the differentiated lineage panel, cells were stained with B220 and CD19 (B-cell markers)-PE, CD3e-APC, Ter119-PeCy7 and CD71-FITC and analyzed on a BD FACSARIA III. For the HSC panel, samples were first treated with ammonium chloride solution (STEMCELL Technologies, France) to lyse red blood cells, washed twice in ice cold PBS with 2% FBS, stained with CD3e, B220, Ter119, Gr1 (Lineage)-PeCy5, c-Kit-Efluor780, Sca1-BV421, CD48-FITC, CD150-BV605 and 7-AAD (for dead cell exclusion) and analyzed on a BD FACSARIA III. […] For plating of CFU assays, 100 LT-HSCs were sorted (gating strategy shown in FIG. 11, e) and resuspended in 3.0 mL Methocult M3434 (STEMCELL Technologies, France). Each mixture was divided onto 2 wells of a non-tissue culture treated 6-well plate. Following a 14-day incubation in a humidified incubator at 37° C., 5% CO2, 20% O2, colonies were morphologically distinguished and scored. […] Cells were stained with anti-cKit and anti-CD45 antibodies and analyzed on a BD LSRFortessa. […]
# [3] = system: HE cells; test: Transplantation of treated HE cells into irradiated NSG mice; assay type: in vivo; details: week 12 BM
# Protocol: Sorted human HE cells (350,000) were mixed with OP9-DL1 stroma (60,000) and subcultured for 3 days with or without DCA (3 mM) on Matrigel (16 μg/cm^2, Corning)-coated 12-well plates in HE medium (32). Between 100,000-150,000 cells from control or DCA samples were transplanted into sub lethally irradiated (300 cGy) 8-week-old female NOD/Cg-Prkdc^scid Il2^tm1Wj1/SzJ mice (NSG, The Jackson Laboratory) together with 20,000 whole BM support cells from C57BV6.SJL mice (CD45.1^+/CD45.2^+, in house breeding). Cells were transplanted in single cell solution in 250 μL PBS with 2% FBS through intravenous tail vein injection. Drinking water of transplanted NSG mice was supplemented with ciprofloxacin (125 mg/L, HEXAL) for 3 weeks after transplantation to prevent infection. Mice were housed in a controlled environment with 12-hour light-dark cycles with chow and water provided ad libitim. Experiments and animal care were performed in accordance with the Lund University Animal Ethical Committee.
# Peripheral blood (PB) was collected from the tail vein into EDTA-coated microvette tubes (Sarstedt, Cat #20.1341.100). […]
# Bone marrow was analyzed at the 12-week transplantation endpoint. […]
smiles,measurement,setting,value
"O=C(O)C(Cl)Cl [DCA, dichloroacetate]",NK cell differentiation (CD45+CD56+ cells),"[1]; 3-day treatment, 35-day co-culture, UK5099 10 μM, DCA 3 mM",significantly increased
same,activity of NK cells in co-culture with K562 cells,[1]; DCA 10 mM,did not impact the activity of the NK cells; also recorded: depletion in the percentage of activated NK cells
same,activated NK cells (CD56+CD3-CD16+ cells),"[1]; DCA 10 mM, vs control",increased NK cell activation; also recorded: increases compared with control
same,total NK cells (CD56+CD3- cells),"[1]; DCA 10 mM, vs control",increased NK cell differentiation; also recorded: marginal increase
same,BFU-E colonies from LT-HSCs,[2],fewer
same,common lymphoid progenitor (CLP) population,[3],significant increase
